Each number is a percent effect as filed.
How 0% and 100% were set is not recorded. Most values in the screen are low, and negative values occur.
This is an unselected part of the compounds tested.
Two or more numbers in one place are separate tests of the same structure; such repeats can differ widely.

Mtb cholesterol medium: 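Phenotypic screen: M. tuberculosis growth, cholesterol and DPPC medium, 4 days; the read-out is not stated. Compounds at 50 µM. Direction is inferred from retests: higher values go with more growth inhibition. Of about 69,000 compounds tested this way, about 370 (0.54%) reached 50% or more in at least one test.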
Mtb glucose medium: 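Whole-cell growth test on Mycobacterium tuberculosis, read after 3 days in glucose-containing 7H9 medium; the read-out is not stated. Concentration: 50 µM. Direction is inferred from retests: higher values go with more growth inhibition. About 69,000 compounds were tested under these conditions; 1.1% (about 760) showed 50% or more at least once.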

Compound: CCn1c(C(=O)N2CCN(CC[S+](C)[O-])CC2)cc2ccccc21 (stereo unspecified)
Mtb cholesterol medium: -19.41%
Mtb glucose medium: -22.4%

Compound: Cc1nsc(N2CCCN(c3nc(C4CC4)ns3)CC2)n1
Mtb cholesterol medium: -6.93%
Mtb glucose medium: 7.884% & 12.57%

Compound: Cc1nnc(NC(=O)NCc2ccc(F)cc2)s1
Mtb cholesterol medium: -3.679%
Mtb glucose medium: 8.035%

Compound: CC(C)COC(=O)N1CC(=O)N(Cc2ccco2)CC(O)C1 (stereo unspecified)
Mtb cholesterol medium: -7.546%
Mtb glucose medium: -0.08401%

Compound: COC(=O)c1cccn1C1CCN(Cc2nc3ccccc3o2)CC1
Mtb cholesterol medium: 3.76%
Mtb glucose medium: -6.512%

Compound: Cc1cc(S(=O)(=O)N2CCOCC2C#N)ccc1F (stereo unspecified)
Mtb cholesterol medium: -39.19%
Mtb glucose medium: 3.299% & -35.03%

Compound: O=S1(=O)CCC(c2nc(-c3cccc(Br)c3)no2)C1 (stereo unspecified)
Mtb cholesterol medium: 3.939%
Mtb glucose medium: -9.107% & 5.399%

Compound: COCc1cc(CNC(=O)c2c(C)c(C)cc(C)c2C)n[nH]1
Mtb cholesterol medium: 12.05%
Mtb glucose medium: 12.71%

Compound: COc1ccc(CC(=O)N2CCc3nc(C(=O)N(C)C)sc3CC2)cc1
Mtb cholesterol medium: 5.023%
Mtb glucose medium: -8.039% & -7.421%

Compound: CCc1nc(C2CCCN2Cc2nc(CCOC)no2)no1 (stereo unspecified)
Mtb cholesterol medium: -7.47%
Mtb glucose medium: 6.443%

Compound: Cc1noc(Cl)c1CCC(=O)N1CCC(Nc2cccnn2)CC1
Mtb cholesterol medium: 6.341%
Mtb glucose medium: -11.61%

Compound: CC(C)CC1(C(=O)NCCc2nncn2C2CC2)CCC1
Mtb cholesterol medium: -6.115%
Mtb glucose medium: 8.622% & -3.93%

Compound: COc1ccc(CN2CCOC[C@H](Oc3cccnc3)C2)cc1
Mtb cholesterol medium: -18.68%
Mtb glucose medium: -33.95% & -3.537%

Compound: COC(=O)c1cccc(C(=O)N2CCN(c3ccc(Cl)cc3)CC2)n1
Mtb cholesterol medium: 5.567%
Mtb glucose medium: 7.575%

Compound: O=C(CCc1nc(-c2ccsc2)no1)NCC1CCN(C2CC2)C1 (stereo unspecified)
Mtb cholesterol medium: -15.03%
Mtb glucose medium: -26.59%

Compound: COCCN1C(=O)CCC12CCCN(Cc1ccccc1F)C2.O=C(O)C(F)(F)F.O=C(O)C(F)(F)F (stereo unspecified)
Mtb cholesterol medium: 0.7518%
Mtb glucose medium: 21.72%

Compound: Cc1ccccc1CCC1CCCN(Cc2nnc(-c3ccco3)o2)C1 (stereo unspecified)
Mtb cholesterol medium: 22.58%
Mtb glucose medium: 16.58%

Compound: O=C(c1ccc(-n2cnnc2)nc1)N1CCCC(O)(CO)CC1 (stereo unspecified)
Mtb cholesterol medium: -6.05%
Mtb glucose medium: -19.89%

Compound: Cn1cccc1-c1cc(C(=O)N2CC(c3cccnc3)C2)[nH]n1
Mtb cholesterol medium: -1.677%
Mtb glucose medium: -18.46%

Compound: COc1ccc(CNC2CCN(c3ccccc3)C2)cc1O (stereo unspecified)
Mtb cholesterol medium: -9.557%
Mtb glucose medium: 3.763%

Compound: Cc1cnn(-c2cncc(C(N)=O)c2)c1
Mtb cholesterol medium: -7.525%
Mtb glucose medium: -34.81%

Compound: Cc1nnc(C2Cc3ccccc3CN2Cc2ncc(C(C)(C)C)o2)o1 (stereo unspecified)
Mtb cholesterol medium: -30.1%
Mtb glucose medium: -24.34%

Compound: O=C(c1ccoc1)N1CCCn2cnc(COCC3CC3)c2C1
Mtb cholesterol medium: -22.58%
Mtb glucose medium: -8.491%

Compound: O=C(CC1CCCC1)NCCn1ccc(-c2ccccn2)n1
Mtb cholesterol medium: 16.13%
Mtb glucose medium: 24.55%

Compound: COc1ccccc1CC1CCCN(CC(N)=O)C1 (stereo unspecified)
Mtb cholesterol medium: -4.762%
Mtb glucose medium: 4.378%

Compound: NC(=O)N1CCC(NCc2cc(C(F)(F)F)ccc2Cl)CC1
Mtb cholesterol medium: -8.724%
Mtb glucose medium: -6.235%

Compound: CC(C)CC(O)C1CCN(C(=O)c2ccc(C(C)C)[nH]c2=O)CC1 (stereo unspecified)
Mtb cholesterol medium: -4.17%
Mtb glucose medium: -7.161%

Compound: Cc1n[nH]cc1C(=O)N1CCCC(c2cccc(-n3ccnc3)n2)C1 (stereo unspecified)
Mtb cholesterol medium: 3.571%
Mtb glucose medium: 32.41%

Compound: [H][C@]12CC[C@]([H])(CN(Cc3ccccc3OC(F)F)C1)N(CC1CC1)C2=O
Mtb cholesterol medium: 21.04%
Mtb glucose medium: 8.64%

Compound: Cc1nn(-c2ccccc2)cc1C(=O)N1CCCC(n2cccn2)C1 (stereo unspecified)
Mtb cholesterol medium: 2.772%
Mtb glucose medium: 1.931%

Compound: Cc1ccsc1CNc1cc(N2CCCC2CO)ncn1 (stereo unspecified)
Mtb cholesterol medium: -11.48%
Mtb glucose medium: 4.527%

Compound: COc1ccc(CC(C)Nc2cccc(F)c2)cc1 (stereo unspecified)
Mtb cholesterol medium: 39.77%
Mtb glucose medium: 5.859%

Compound: Cc1ccc2c(c1)c(C)cc(=O)n2CCC#N
Mtb cholesterol medium: -34.53%
Mtb glucose medium: -29.48% & -9.458%

Compound: CC(Cc1cccc(Cl)c1)NC(=O)NCc1ncnn1C (stereo unspecified)
Mtb cholesterol medium: -0.6277% & -1.084%
Mtb glucose medium: -11.15%

Compound: Cc1nc(C2(NCC(=O)NC(=O)Nc3ccccc3)CCCCC2)no1
Mtb cholesterol medium: 7.827%
Mtb glucose medium: 11.1%

Compound: OCCc1cn(CC2CCCN(Cc3nccs3)C2)nn1 (stereo unspecified)
Mtb cholesterol medium: -17.51%
Mtb glucose medium: -8.239%

Compound: O=C1N(c2ccc(Cl)cc2)Cc2nc(=O)[nH]n21
Mtb cholesterol medium: 7.008% & -6.153%
Mtb glucose medium: -3.947%

Compound: CC(C)NC(=O)C1CN(C(=O)CCc2ccccc2)CC12CCOCC2 (stereo unspecified)
Mtb cholesterol medium: -2.014%
Mtb glucose medium: 3.578%

Compound: O=C1CC2(CCN(C(=O)c3ccc4c(c3)CCCO4)C2)C(=O)N1 (stereo unspecified)
Mtb cholesterol medium: -3.425%
Mtb glucose medium: -5.939%

Some entries from above, unchanged:

* Cc1ccccc1CCC1CCCN(Cc2nnc(-c3ccco3)o2)C1 (stereo unspecified) | Mtb cholesterol medium: 22.58%; Mtb glucose medium: 16.58%
* Cc1cnn(-c2cncc(C(N)=O)c2)c1 | Mtb cholesterol medium: -7.525%; Mtb glucose medium: -34.81%
* Cc1noc(Cl)c1CCC(=O)N1CCC(Nc2cccnn2)CC1 | Mtb cholesterol medium: 6.341%; Mtb glucose medium: -11.61%
* CC(C)NC(=O)C1CN(C(=O)CCc2ccccc2)CC12CCOCC2 (stereo unspecified) | Mtb cholesterol medium: -2.014%; Mtb glucose medium: 3.578%
* COC(=O)c1cccc(C(=O)N2CCN(c3ccc(Cl)cc3)CC2)n1 | Mtb cholesterol medium: 5.567%; Mtb glucose medium: 7.575%

The values are deposited in ChEMBL (CHEMBL3988442, “University of Dundee, Small-Polar-MMV Screening Library” (2021)).